The text below walks through data of publication PMC7819943, “Rice protein-binding microarrays: a tool to detect cis-acting elements near promoter regions in rice”.

Some of the results follow.

The target in this experiment is T1, OsSMF1 (Oryza sativa, UniProt Q6ZLB0 1-436).
T1 sequence: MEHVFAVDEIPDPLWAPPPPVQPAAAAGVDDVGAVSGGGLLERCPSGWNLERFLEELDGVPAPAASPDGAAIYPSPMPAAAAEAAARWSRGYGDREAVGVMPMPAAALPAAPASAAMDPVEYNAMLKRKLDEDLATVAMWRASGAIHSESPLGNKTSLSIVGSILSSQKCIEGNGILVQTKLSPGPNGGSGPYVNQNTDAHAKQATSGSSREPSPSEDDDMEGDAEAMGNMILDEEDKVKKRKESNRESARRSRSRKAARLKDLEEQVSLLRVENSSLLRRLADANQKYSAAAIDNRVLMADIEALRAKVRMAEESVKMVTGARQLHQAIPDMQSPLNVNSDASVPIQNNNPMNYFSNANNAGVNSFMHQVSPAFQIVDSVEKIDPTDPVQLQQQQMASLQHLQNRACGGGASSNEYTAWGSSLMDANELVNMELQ
Briefly: protein-binding microarray (RPBM); PBS, 2% BSA, 51.3 ng/ul salmon testes DNA, 50 uM zinc acetate, 200 nM TF, 25 C, 1 h; high values mean tight binding. The settings on record: protein: recombinant; tags: N-terminal polyhistidine and DsRed monomer fusion (pET32a); chain copies: 2; label: CyDye5-dUTP incorporated in the synthesized complementary strand; 3' TTTTT single-stranded linker to array surface; dsDNA, one strand shown. In outline: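 Binding signal is reported as fluorescence intensity per feature (arbitrary units) from an Axon 4000B scanner. Incubation used 200 nM of each Ni–NTA-purified, N-terminally polyhistidine- and DsRed-fused transcription factor from E. coli BL21-CodonPlus on a double-stranded custom Agilent array for 1 h at 25 °C, with 50 µM zinc acetate in the buffer, followed by washing.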
On to “TCTCCCCGTTTGCTACTCCGGCGCCGGCGAGGCCACCTCGCGGAGTCACCTAGTGCAG”, for which the binding signal was 3370 fluorescence intensity (a.u.).
The result for “TCTAACAATATTGTTCTGTGTCAACAAAGATCTTGTCACTCGGAGTCACCTAGTGCAG” reads 4720 fluorescence intensity (a.u.); that for “TCGAGCCCCTCTCCCTCCGCGAGCCGTGTGCAGCGGGCGACGGAGTCACCTAGTGCAG”, 3430 fluorescence intensity (a.u.); that for “ATCTCAAATTCCAGACTTCCAGAGGCGAGCACAGGAGGAGCGGAGTCACCTAGTGCAG”, 15200 fluorescence intensity (a.u.).
For “CCCCGAGGGAGAGGAATATACCGCGTGTGTGCGCGTGTGTCGGAGTCACCTAGTGCAG”, the binding signal was 3300 fluorescence intensity (a.u.).
The result for “TATCTAACCATGACATAACTAAAGTGTGACTTAGCAAAATCGGAGTCACCTAGTGCAG” reads 3560 fluorescence intensity (a.u.).
The result for “CACATTGACTCAGCTGCCACATCGGATAAAATTGCAGTCACGGAGTCACCTAGTGCAG” reads 10400 fluorescence intensity (a.u.).
In the case of “GCTTCCATATTACACTACATCTCTTCCCTTCAATTACCCCCGGAGTCACCTAGTGCAG” it was 3350 fluorescence intensity (a.u.); in that of “CGAGGAGAGAGAGGTTGCAAGCGAGGATAAAGCGCCCGCACGGAGTCACCTAGTGCAG”, 3160 fluorescence intensity (a.u.); in that of “TTCTCCACATCACAATGATACTGAACGTCAGCACTAAGATCGGAGTCACCTAGTGCAG”, 6490 fluorescence intensity (a.u.).
For the sequence “AGATCCCGAATTCGTGCCACGTGATCTGCCGTCGTGTATTCGGAGTCACCTAGTGCAG”, the binding signal is 6050 fluorescence intensity (a.u.).
In the case of “CGCCCGAGAGCGAACGGCCGTCTGCCACGTCATTTTCGCCCGGAGTCACCTAGTGCAG” it was 38100 fluorescence intensity (a.u.).
The result for “TTTGTAAAATTTCAGTGACACGGCTACAAATAGACGCACTCGGAGTCACCTAGTGCAG” reads 4580 fluorescence intensity (a.u.); that for “TCCCCACGCCGCGCCGCCCGCCTGACCTCAGCCACGCACACGGAGTCACCTAGTGCAG”, 3960 fluorescence intensity (a.u.); that for “TCCATTTTCTGTTTTGATCTCCGATATGATCCGATACATCCGGAGTCACCTAGTGCAG”, 3600 fluorescence intensity (a.u.).
On to “TGGTAAGTGTCCGCGTGTATATACGAGCGTTTGTGTATCACGGAGTCACCTAGTGCAG”, for which the binding signal was 3660 fluorescence intensity (a.u.).
In the case of “GAGTTTATTCATGAACTCTCTGTCGATTCTGATGGTGAATCGGAGTCACCTAGTGCAG” it was 3680 fluorescence intensity (a.u.).
In the case of “TCTCATCCTCATCCTCATCCTGCAACAACCGTATTATATACGGAGTCACCTAGTGCAG”, the binding signal is 15500 fluorescence intensity (a.u.).
In the case of “TCCGGCGGAGGGGAGGCTGCCGTCACTCCCGCCTGGCTCGCGGAGTCACCTAGTGCAG” it was 3350 fluorescence intensity (a.u.); in that of “TACTCATAGGGGTAGCGCTTACGTGCGTGCGTTTAGGTTGCGGAGTCACCTAGTGCAG”, 5760 fluorescence intensity (a.u.); in that of “ATCAACATCACCACAGTCCAGTCAAATTCAAATCCAGCCTCGGAGTCACCTAGTGCAG”, 3170 fluorescence intensity (a.u.).
On to “TGCGGGGTTCTCACTCTGACCGTCTGACGTCACTCTGGAGCGGAGTCACCTAGTGCAG”, for which the binding signal was 17000 fluorescence intensity (a.u.).
In the case of “GATCGAGCAGGAGCAGGTTGTTGGGTCGTCCACCTCACTCCGGAGTCACCTAGTGCAG” it was 3630 fluorescence intensity (a.u.); in that of “ATAAGGGCTTGTTCGATATTGCTTGTTCCCAAGCGGAACTCGGAGTCACCTAGTGCAG”, 3150 fluorescence intensity (a.u.).
The result for “CCTCCAATTTTCGAGCGTGGCCACGCGTATTTCAGTGGCTCGGAGTCACCTAGTGCAG” reads 5210 fluorescence intensity (a.u.).
Take “GCCGCCGCCGCCGTCTGCACCCGCGTCAGCGCTCCACAAACGGAGTCACCTAGTGCAG”: the binding signal is 3440 fluorescence intensity (a.u.).
The result for “AACTAGTAGCAATTTAGCATGACATGGTACTCGTCTACACCGGAGTCACCTAGTGCAG” reads 20400 fluorescence intensity (a.u.).
In the case of “GGCCCGTGGTTTGGGCCGGAAGGTGATGACGCCTCTGCCGCGGAGTCACCTAGTGCAG” it was 4270 fluorescence intensity (a.u.).
In the case of “AGTATTCCTGTGACACTGTCTTCAAATATTACGTCAGCGTCGGAGTCACCTAGTGCAG” it was 16400 fluorescence intensity (a.u.); in that of “TTTCTTCCATCCACGCGGCGGCTGTTTAACCCGTCGGCTCCGGAGTCACCTAGTGCAG”, 4600 fluorescence intensity (a.u.); in that of “GTTAATTAATACTCTCCGTTTCATATTATAAGGCGTTTGACGGAGTCACCTAGTGCAG”, 26400 fluorescence intensity (a.u.).
As to “AAGGACAACATCATCATCCATGACCATGCTGACAGCGCGCCGGAGTCACCTAGTGCAG”, the binding signal is 4810 fluorescence intensity (a.u.).
The result for “TGATTAATCCGTTATTACATGTTTCTTTCTTGTCGGCTACCGGAGTCACCTAGTGCAG” reads 3500 fluorescence intensity (a.u.); that for “TACCTCGCATGCCACGCAGTCCCACGTACGCCTCTCGTGTCGGAGTCACCTAGTGCAG”, 11600 fluorescence intensity (a.u.).
In the case of “AATTTTATGTCAGTCACAACTTACAACTTACGTAATTGTGCGGAGTCACCTAGTGCAG” it was 3220 fluorescence intensity (a.u.); in that of “GAGCGGTCGCCACGCCAGATTCTCTCTCTCTCTCTCTCCCCGGAGTCACCTAGTGCAG”, 8980 fluorescence intensity (a.u.).
In the case of “CCCCGTCGTTGTCGCCACCTACTTCTACCTGCGCGGATTCCGGAGTCACCTAGTGCAG” it was 4830 fluorescence intensity (a.u.); in that of “GGAAGGAGATGATGACAATGTTGTGGAAGCTGTTCCACGCCGGAGTCACCTAGTGCAG”, 4460 fluorescence intensity (a.u.); in that of “GTTCCACATGTCATCCTCTCCCTTTCTTCTTCCTCCCCTCCGGAGTCACCTAGTGCAG”, 3930 fluorescence intensity (a.u.).
Turning to “AGATTGTTTACTCACACGATGTTTTGTTGTTCTTTGTCATCGGAGTCACCTAGTGCAG”, the binding signal was 3700 fluorescence intensity (a.u.).
In the case of “TTGGCACTCATAAACATATATGACTCGATCTATAATAGCTCGGAGTCACCTAGTGCAG” it was 4890 fluorescence intensity (a.u.); in that of “CTTATCTTTCTTATCTCCTCCACCTCATCATTTAGTACTACGGAGTCACCTAGTGCAG”, 5700 fluorescence intensity (a.u.).
